Where a name gives a salt, the structure may show the parent alone. The list shows a part of the results. Most values lie at the level of the controls, where differences are scatter.

This test concerns hPSC-derived cortical neurons (WA09). As to the kind of experiment: nucleus roundness z-score vs screen plate; higher = rounder nuclei (more mature). The conditions noted are these: 5 µM; treatment: days 7-14 after plating, readout day 21.
With `NC(=O)CC[C@H](N)C(=O)O` [L-Glutamine], the nucleus roundness z-score was 1.48. Take `Cc1[nH]c2ccccc2c1CCNCc1ccc(/C=C/C(=O)NO)cc1` [Panobinostat (LBH589)]: the nucleus roundness z-score is -1.83. The molecule `CCCC(=O)Nc1ncnc2c1ncn2[C@@H]1O[C@@H]2COP(=O)(O)O[C@H]2[C@H]1OC(=O)CCC` [Dibutyryl-cAMP (Bucladesine)] displayed a nucleus roundness z-score of 0.652. To `CC(C)Oc1ccc(C(=O)N[C@H](CNC(=O)CN(C)C)Cc2ccc(-c3cn4cccc([C@H](C)O)c4n3)cc2)cc1Cl` belongs 0.492; to `Nc1nc(N)c2nc(-c3ccccc3)c(N)nc2n1` [Triamterene], -0.101; to `COc1c(C)c2c(c(O)c1C/C=C(\C)CCC(=O)OCCN1CCOCC1)C(=O)OC2` [Mycophenolate Mofetil], 0.573.

`CC(C(=O)O)c1cccc(Oc2ccccc2)c1` (stereo not drawn) [Fenoprofen Calcium] registered a nucleus roundness z-score of 0.0123.

Consider `C[C@H](CCC(=O)O)[C@H]1CC[C@H]2[C@@H]3C[C@H](O)[C@@H]4C[C@H](O)CC[C@]4(C)[C@H]3CC[C@]12C` [Hyodeoxycholic acid (HDCA)], for which the nucleus roundness z-score was -0.035. Next, `C[N+](C)(C)CCO.[Cl-]` [Choline Chloride]: 0.426. Turning to `Nc1ccc(S(=O)(=O)NC(=O)c2ccccc2)cc1` [Sulfabenzamide], the nucleus roundness z-score is -0.15. Next, `C=CC(=O)Nc1cccc(C)c1Nc1ncc2cc(-c3c(Cl)c(OC)cc(OC)c3Cl)ccc2n1`: 1; `COc1cccc2c1C(=O)c1c(O)c3c(c(O)c1C2=O)C[C@@](O)(C(=O)CO)C[C@@H]3O[C@H]1C[C@H](N)[C@H](O)[C@H](C)O1` [Doxorubicin (Adriamycin)]: 1.15. Next, `O=C(O)c1cccc(-c2noc(-c3ccccc3F)n2)c1` [Ataluren (PTC124)]: 0.326; `O=C(NC(NC(=S)Nc1ccc(F)c([N+](=O)[O-])c1)C(Cl)(Cl)Cl)C(c1ccccc1)c1ccccc1` (stereo not drawn): 0.0376; `CC#CC(=O)N1CC[C@@H](n2c(=O)n(-c3ccc(Oc4ccccc4)cc3)c3c(N)ncnc32)C1`: -1.76.

For `Nc1nc(=O)c2c([nH]1)NC[C@H](CNc1ccc(C(=O)N[C@@H](CCC(=O)O)C(=O)O)cc1)N2C=O` [Calcium Levofolinate], the nucleus roundness z-score was -0.475. In the case of `OCC(O)CN1CCN(c2ccccc2)CC1` (stereo not drawn) [Dropropizine], the nucleus roundness z-score was -0.0393. To `O=C(O)CCC(=O)c1ccc(-c2ccccc2)cc1` [Fenbufen] belongs -3.02; to `Cc1cn[nH]c1` [Fomepizole], -0.894; to `COc1nc(C)nc(Cl)c1NC1=NCCN1` [Moxonidine], 0.828. Next, `CC(C)COc1ccc(CNC(=O)N(Cc2ccc(F)cc2)C2CCN(C)CC2)cc1` [Pimavanserin]: -7.8; `C[C@@H](c1ncncc1F)[C@](O)(Cn1cncn1)c1ccc(F)cc1F` [Voriconazole]: 0.729.

With `Cc1ncc(CO)c(CO)c1O` [Pyridoxine HCl], the nucleus roundness z-score turned out to be 1.48. Next, `O=C1c2c(O)cc(O)cc2O[C@H](c2cc(O)c(O)c(O)c2)[C@H]1O` [Dihydromyricetin]: 1.01; `Cc1ccc(-n2nc(C(C)(C)C)cc2NC(=O)Nc2ccc(OCCN3CCOCC3)c3ccccc23)cc1` [BIRB 796 (Doramapimod)]: -1.33; `O=C(NNc1ccccc1)c1ccncc1`: -1.14. Molecule `C=CC1=C(C(=O)O)N2C(=O)[C@@H](NC(=O)/C(=N\OCC(=O)O)c3csc(N)n3)[C@H]2SC1` [Cefixime] gave a nucleus roundness z-score of 0.167. Take `CC(C)(C)C#Cc1cc(N(C(=O)[C@H]2CC[C@H](C)CC2)[C@H]2CC[C@H](O)CC2)c(C(=O)O)s1` [VX-222 (VCH-222_ Lomibuvir)]: the nucleus roundness z-score is -0.618. Regarding `COc1ccc(S(=O)(=O)Nc2nc(-c3cccc([N+](=O)[O-])c3)cs2)cc1OC`, the nucleus roundness z-score came out at 1.19. On to `CCN1CCN(Cc2ccc(Nc3ncc(F)c(-c4cc(F)c5nc(C)n(C(C)C)c5c4)n3)nc2)CC1`, for which the nucleus roundness z-score was -3.9.

The molecule `CC(N)C12CC3CC(CC(C3)C1)C2` (stereo not drawn) [Rimantadine] displayed a nucleus roundness z-score of -1.25. `C[N+](C)(C)CCOC(=O)CCC(=O)OCC[N+](C)(C)C` [Succinylcholine Chloride Dihydrate] had a nucleus roundness z-score of 0.804. Next, `CO[C@H]1C[C@@H]2CC[C@@H](C)[C@@](O)(O2)C(=O)C(=O)N2CCCC[C@H]2C(=O)O[C@H]([C@H](C)C[C@@H]2CC[C@@H](OCCO)[C@H](OC)C2)CC(=O)[C@H](C)/C=C(\C)[C@@H](O)[C@@H](OC)C(=O)[C@H](C)C[C@H](C)/C=C/C=C/C=C/1C` [Everolimus (RAD001)]: -4.92.

The values are drawn from the supplement of paper PMC11348887.
